Like-named read-outs stand apart in the source and are kept apart here. Results are given in words; binding and its absence hold for the method and conditions named. In cells and extracts the contact can be indirect. A yes stands for co-enrichment or nearness to the bait. Other partners may have been found. No binding means not detected with the bait.
B1: ZMYM2 (protein, UniProt Q9UBW7 1-1377)
chain: MDTSSVGGLELTDQTPVLLGSTAMATSLTNVGNSFSGPANPLVSRSNKFQNSSVEDDDDVVFIEPVQPPPPSVPVVADQRTITFTSSKNEELQGNDSKITPSSKELASQKGSVSETIVIDDEEDMETNQGQEKNSSNFIERRPPETKNRTNDVDFSTSSFSRSKVNAGMGNSGITTEPDSEIQIANVTTLETGVSSVNDGQLENTDGRDMNLMITHVTSLQNTNLGDVSNGLQSSNFGVNIQTYTPSLTSQTKTGVGPFNPGRMNVAGDVFQNGESATHHNPDSWISQSASFPRNQKQPGVDSLSPVASLPKQIFQPSVQQQPTKPVKVTCANCKKPLQKGQTAYQRKGSAHLFCSTTCLSSFSHKPAPKKLCVMCKKDITTMKGTIVAQVDSSESFQEFCSTSCLSLYEDKQNPTKGALNKSRCTICGKLTEIRHEVSFKNMTHKLCSDHCFNRYRMANGLIMNCCEQCGEYLPSKGAGNNVLVIDGQQKRFCCQSCVSEYKQVGSHPSFLKEVRDHMQDSFLMQPEKYGKLTTCTGCRTQCRFFDMTQCIGPNGYMEPYCSTACMNSHKTKYAKSQSLGIICHFCKRNSLPQYQATMPDGKLYNFCNSSCVAKFQALSMQSSPNGQFVAPSDIQLKCNYCKNSFCSKPEILEWENKVHQFCSKTCSDDYKKLHCIVTYCEYCQEEKTLHETVNFSGVKRPFCSEGCKLLYKQDFARRLGLRCVTCNYCSQLCKKGATKELDGVVRDFCSEDCCKKFQDWYYKAARCDCCKSQGTLKERVQWRGEMKHFCDQHCLLRFYCQQNEPNMTTQKGPENLHYDQGCQTSRTKMTGSAPPPSPTPNKEMKNKAVLCKPLTMTKATYCKPHMQTKSCQTDDTWRTEYVPVPIPVPVYIPVPMHMYSQNIPVPTTVPVPVPVPVFLPAPLDSSEKIPAAIEELKSKVSSDALDTELLTMTDMMSEDEGKTETTNINSVIIETDIIGSDLLKNSDPETQSSMPDVPYEPDLDIEIDFPRAAEELDMENEFLLPPVFGEEYEEQPRPRSKKKGAKRKAVSGYQSHDDSSDNSECSFPFKYTYGVNAWKHWVKTRQLDEDLLVLDELKSSKSVKLKEDLLSHTTAELNYGLAHFVNEIRRPNGENYAPDSIYYLCLGIQEYLCGSNRKDNIFIDPGYQTFEQELNKILRSWQPSILPDGSIFSRVEEDYLWRIKQLGSHSPVALLNTLFYFNTKYFGLKTVEQHLRLSFGTVFRHWKKNPLTMENKACLRYQVSSLCGTDNEDKITTGKRKHEDDEPVFEQIENTANPSRCPVKMFECYLSKSPQNLNQRMDVFYLQPECSSSTDSPVWYTSTSLDRNTLENMLVRVLLVKDIYDKDNYELDEDTD
B2: ZMYM3 (protein, UniProt Q14202 1-1370)
chain: MDPSDFPSPFDPLTLPEKPLAGDLPVDMEFGEDLLESQTAPTRGWAPPGPSPSSGALDLLDTPAGLEKDPGVLDGATELLGLGGLLYKAPSPPEVDHGPEGTLAWDAGDQTLEPGPGGQTPEVVPPDPGAGANSCSPEGLLEPLAPDSPITLQSPHIEEEETTSIATARRGSPGQEEELPQGQPQSPNAPPSPSVGETLGDGINSSQTKPGGSSPPAHPSLPGDGLTAKASEKPPERKRSERVRRAEPPKPEVVDSTESIPVSDEDSDAMVDDPNDEDFVPFRPRRSPRMSLRSSVSQRAGRSAVGTKMTCAHCRTPLQKGQTAYQRKGLPQLFCSSSCLTTFSKKPSGKKTCTFCKKEIWNTKDSVVAQTGSGGSFHEFCTSVCLSLYEAQQQRPIPQSGDPADATRCSICQKTGEVLHEVSNGSVVHRLCSDSCFSKFRANKGLKTNCCDQCGAYIYTKTGSPGPELLFHEGQQKRFCNTTCLGAYKKKNTRVYPCVWCKTLCKNFEMLSHVDRNGKTSLFCSLCCTTSYKVKQAGLTGPPRPCSFCRRSLSDPCYYNKVDRTVYQFCSPSCWTKFQRTSPEGGIHLSCHYCHSLFSGKPEVLDWQDQVFQFCCRDCCEDFKRLRGVVSQCEHCRQEKLLHEKLRFSGVEKSFCSEGCVLLYKQDFTKKLGLCCITCTYCSQTCQRGVTEQLDGSTWDFCSEDCKSKYLLWYCKAARCHACKRQGKLLETIHWRGQIRHFCNQQCLLRFYSQQNQPNLDTQSGPESLLNSQSPESKPQTPSQTKVENSNTVRTPEENGNLGKIPVKTRSAPTAPTPPPPPPPATPRKNKAAMCKPLMQNRGVSCKVEMKSKGSQTEEWKPQVIVLPIPVPIFVPVPMHLYCQKVPVPFSMPIPVPVPMFLPTTLESTDKIVETIEELKVKIPSNPLEADILAMAEMIAEAEELDKASSDLCDLVSNQSAEGLLEDCDLFGPARDDVLAMAVKMANVLDEPGQDLEADFPKNPLDINPSVDFLFDCGLVGPEDVSTEQDLPRTMRKGQKRLVLSESCSRDSMSSQPSCTGLNYSYGVNAWKCWVQSKYANGETSKGDELRFGPKPMRIKEDILACSAAELNYGLAQFVREITRPNGERYEPDSIYYLCLGIQQYLLENNRMVNIFTDLYYLTFVQELNKSLSTWQPTLLPNNTVFSRVEEEHLWECKQLGVYSPFVLLNTLMFFNTKFFGLQTAEEHMQLSFTNVVRQSRKCTTPRGTTKVVSIRYYAPVRQRKGRDTGPGKRKREDEAPILEQRENRMNPLRCPVKFYEFYLSKCPESLRTRNDVFYLQPERSCIAESPLWYSVIPMDRSMLESMLNRILAVREIYEELGRPGEEDLD
B3: ERCC1 (protein, UniProt P07992 1-297)
chain: MDPGKDKEGVPQPSGPPARKKFVIPLDEDEVPPGVAKPLFRSTQSLPTVDTSAQAAPQTYAEYAISQPLEGAGATCPTGSEPLAGETPNQALKPGAKSNSIIVSPRQRGNPVLKFVRNVPWEFGDVIPDYVLGQSTCALFLSLRYHNLHPDYIHGRLQSLGKNFALRVLLVQVDVKDPQQALKELAKMCILADCTLILAWSPEEAGRYLETYKAYEQKPADLLMEKLEQDFVSRVTECLTTVKSVNKTDSQTLLTTFGSLEQLIAASREDLALCPGLGPQKARRLFDVLHEPFLKVP

By UniProt entry, the sequences of proteins in these tests, tags left out.
UniProt O75925: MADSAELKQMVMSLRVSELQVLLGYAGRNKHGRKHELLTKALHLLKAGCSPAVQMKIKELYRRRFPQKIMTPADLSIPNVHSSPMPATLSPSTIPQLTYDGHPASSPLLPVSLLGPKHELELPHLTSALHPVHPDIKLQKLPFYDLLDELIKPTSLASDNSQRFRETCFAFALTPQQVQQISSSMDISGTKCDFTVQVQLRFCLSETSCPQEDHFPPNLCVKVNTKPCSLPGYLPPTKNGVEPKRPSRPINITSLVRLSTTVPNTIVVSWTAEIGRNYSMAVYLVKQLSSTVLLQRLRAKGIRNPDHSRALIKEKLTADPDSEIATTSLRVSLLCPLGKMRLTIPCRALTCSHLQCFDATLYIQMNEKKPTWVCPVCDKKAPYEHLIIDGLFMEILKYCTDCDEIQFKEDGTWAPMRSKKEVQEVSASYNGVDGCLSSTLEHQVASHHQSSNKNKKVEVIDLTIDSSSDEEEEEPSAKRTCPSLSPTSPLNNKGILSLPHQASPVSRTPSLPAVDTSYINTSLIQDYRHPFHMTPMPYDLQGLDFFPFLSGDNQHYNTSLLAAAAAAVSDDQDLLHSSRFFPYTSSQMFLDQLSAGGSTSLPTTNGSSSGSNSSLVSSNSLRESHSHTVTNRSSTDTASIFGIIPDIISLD
UniProt P54132: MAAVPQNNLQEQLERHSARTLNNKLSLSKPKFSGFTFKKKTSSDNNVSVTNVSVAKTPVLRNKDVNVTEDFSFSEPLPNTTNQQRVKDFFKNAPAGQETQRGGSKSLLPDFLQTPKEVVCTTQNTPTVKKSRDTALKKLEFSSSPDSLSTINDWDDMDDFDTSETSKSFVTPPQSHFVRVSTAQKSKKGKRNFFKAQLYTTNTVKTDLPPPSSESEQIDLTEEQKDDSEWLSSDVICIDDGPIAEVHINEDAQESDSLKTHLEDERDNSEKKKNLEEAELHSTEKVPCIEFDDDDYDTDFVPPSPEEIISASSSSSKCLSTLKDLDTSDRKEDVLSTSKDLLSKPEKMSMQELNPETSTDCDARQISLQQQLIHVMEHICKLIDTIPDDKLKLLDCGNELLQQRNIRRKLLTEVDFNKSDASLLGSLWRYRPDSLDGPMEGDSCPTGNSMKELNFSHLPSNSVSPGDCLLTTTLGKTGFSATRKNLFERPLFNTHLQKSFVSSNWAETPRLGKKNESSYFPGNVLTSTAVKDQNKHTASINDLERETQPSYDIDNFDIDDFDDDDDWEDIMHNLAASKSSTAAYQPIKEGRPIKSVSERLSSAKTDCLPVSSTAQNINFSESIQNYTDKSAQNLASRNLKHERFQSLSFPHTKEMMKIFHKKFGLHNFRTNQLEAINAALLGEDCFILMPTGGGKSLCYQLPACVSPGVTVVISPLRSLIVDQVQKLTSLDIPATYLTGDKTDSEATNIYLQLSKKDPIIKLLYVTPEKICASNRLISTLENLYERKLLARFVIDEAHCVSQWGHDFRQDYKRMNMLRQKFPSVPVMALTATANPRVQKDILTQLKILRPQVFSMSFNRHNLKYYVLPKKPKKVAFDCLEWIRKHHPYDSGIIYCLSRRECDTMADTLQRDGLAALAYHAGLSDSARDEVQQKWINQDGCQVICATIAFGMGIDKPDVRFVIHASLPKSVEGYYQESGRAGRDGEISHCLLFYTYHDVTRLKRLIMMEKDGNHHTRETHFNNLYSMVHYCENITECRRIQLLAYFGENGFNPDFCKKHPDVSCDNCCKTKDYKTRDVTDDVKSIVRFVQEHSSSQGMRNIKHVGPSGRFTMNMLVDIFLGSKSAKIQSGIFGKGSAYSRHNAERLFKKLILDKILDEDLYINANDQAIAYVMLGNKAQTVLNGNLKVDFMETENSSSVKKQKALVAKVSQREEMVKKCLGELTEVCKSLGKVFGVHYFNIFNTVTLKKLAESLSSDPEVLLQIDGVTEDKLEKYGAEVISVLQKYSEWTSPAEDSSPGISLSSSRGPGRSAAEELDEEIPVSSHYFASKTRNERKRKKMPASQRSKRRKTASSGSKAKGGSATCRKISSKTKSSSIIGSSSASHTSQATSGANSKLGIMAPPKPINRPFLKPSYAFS
UniProt Q8IY92: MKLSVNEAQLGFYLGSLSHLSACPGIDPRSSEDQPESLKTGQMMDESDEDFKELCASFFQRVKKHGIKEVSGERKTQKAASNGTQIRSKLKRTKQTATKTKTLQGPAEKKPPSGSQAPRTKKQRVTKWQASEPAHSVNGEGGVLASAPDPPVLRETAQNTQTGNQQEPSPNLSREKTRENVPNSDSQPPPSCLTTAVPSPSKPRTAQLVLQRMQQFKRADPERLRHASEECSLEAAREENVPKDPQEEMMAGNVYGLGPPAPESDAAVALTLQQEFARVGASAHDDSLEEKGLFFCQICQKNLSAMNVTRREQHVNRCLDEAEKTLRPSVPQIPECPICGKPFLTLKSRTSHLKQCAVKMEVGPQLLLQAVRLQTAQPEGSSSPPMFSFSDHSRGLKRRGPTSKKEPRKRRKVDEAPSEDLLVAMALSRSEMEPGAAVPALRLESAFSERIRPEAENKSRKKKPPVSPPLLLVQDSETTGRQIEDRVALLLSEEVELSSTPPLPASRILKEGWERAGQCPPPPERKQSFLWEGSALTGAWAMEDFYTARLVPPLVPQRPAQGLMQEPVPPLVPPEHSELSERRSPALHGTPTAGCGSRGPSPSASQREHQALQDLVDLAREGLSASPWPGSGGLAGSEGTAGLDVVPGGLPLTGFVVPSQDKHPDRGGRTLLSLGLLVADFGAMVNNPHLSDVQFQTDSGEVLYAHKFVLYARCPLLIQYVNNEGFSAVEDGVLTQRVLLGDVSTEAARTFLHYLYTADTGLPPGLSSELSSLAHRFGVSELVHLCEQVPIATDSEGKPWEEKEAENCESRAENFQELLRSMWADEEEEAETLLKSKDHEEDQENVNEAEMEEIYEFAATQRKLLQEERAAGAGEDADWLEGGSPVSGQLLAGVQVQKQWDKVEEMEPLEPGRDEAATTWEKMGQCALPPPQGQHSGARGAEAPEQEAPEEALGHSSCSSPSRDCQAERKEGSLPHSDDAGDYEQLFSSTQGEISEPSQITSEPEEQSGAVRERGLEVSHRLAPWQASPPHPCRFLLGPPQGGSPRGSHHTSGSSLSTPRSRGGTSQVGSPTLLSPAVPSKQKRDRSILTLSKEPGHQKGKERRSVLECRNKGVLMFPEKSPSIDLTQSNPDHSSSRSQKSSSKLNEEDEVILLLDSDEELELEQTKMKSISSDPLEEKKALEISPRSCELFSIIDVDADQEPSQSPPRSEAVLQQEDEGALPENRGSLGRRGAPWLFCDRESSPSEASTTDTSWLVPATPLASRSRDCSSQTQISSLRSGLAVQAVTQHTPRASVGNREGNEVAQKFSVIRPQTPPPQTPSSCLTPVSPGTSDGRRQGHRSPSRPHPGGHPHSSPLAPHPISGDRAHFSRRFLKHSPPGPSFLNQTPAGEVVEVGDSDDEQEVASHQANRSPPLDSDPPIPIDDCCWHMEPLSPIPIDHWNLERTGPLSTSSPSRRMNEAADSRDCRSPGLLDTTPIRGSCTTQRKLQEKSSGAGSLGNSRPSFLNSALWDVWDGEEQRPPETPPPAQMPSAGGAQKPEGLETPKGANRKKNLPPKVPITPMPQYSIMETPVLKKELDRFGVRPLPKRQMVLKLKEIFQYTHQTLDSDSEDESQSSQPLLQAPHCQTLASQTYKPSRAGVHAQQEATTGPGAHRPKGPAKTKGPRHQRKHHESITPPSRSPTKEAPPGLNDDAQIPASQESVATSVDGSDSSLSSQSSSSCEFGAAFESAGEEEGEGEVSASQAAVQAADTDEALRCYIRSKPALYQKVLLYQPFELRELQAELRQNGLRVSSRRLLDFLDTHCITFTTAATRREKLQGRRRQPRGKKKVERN

Experiments:
Assay in all cases: affinity purification with mass spectrometry; 100 ug His10-SUMO2/3 WT, IKR or QFI on Ni-NTA beads, incubated with whole-cell HeLa lysate 2 h at 4°C in 50 mM tris pH 7.5, 150 mM NaCl, 0.5% NP-40, 50 mM imidazole; eluted with 8 M urea; LC-MS/MS, label-free quantification against uncoated beads (t test, FDR 0.05), n = 4; only the target purified
[1] = target: T1, His10-SUMO2 IKR (I33A-K34A-R35A) (human (from the printed UniProt accession)) (UniProt P55854)
[2] = target: T2, His10-SUMO2 QFI (Q30A-F31A-I33A) (human (from the printed UniProt accession)) (UniProt P55854)
[3] = target: T3, His10-SUMO3 QFI (Q31A-F32A-I34A) (human (from the printed UniProt accession)) (UniProt P61956)
[4] = target: T4, His10-SUMO3 IKR (I34A-K35A-R36A) (human (from the printed UniProt accession)) (UniProt P61956)
[5] = target: T1, His10-SUMO2 IKR (I33A-K34A-R35A) (human); remark: listed apart in the source
[6] = target: T2, His10-SUMO2 QFI (Q30A-F31A-I33A) (human); remark: listed apart in the source
[7] = target: T3, His10-SUMO3 QFI (Q31A-F32A-I34A) (human); remark: listed apart in the source
[8] = target: T4, His10-SUMO3 IKR (I34A-K35A-R36A) (human); remark: listed apart in the source

Row | Molecule | binding [1] | binding [2] | binding [3] | binding [4] | binding [5] | binding [6] | binding [7] | binding [8]
1 | valosin-containing protein (VCP) (from UniProt P55072 1-806) | binds | binds | binds | binds |  |  |  | 
2 | PIAS1 (from UniProt O75925 1-651) | no binding | no binding | no binding | no binding |  |  |  | 
3 | BLM (from UniProt P54132 1-1417) | no binding | no binding | no binding | no binding |  |  |  | 
4 | SLX4 (from UniProt Q8IY92 1-1834) | no binding | no binding | no binding | no binding |  |  |  | 
5 | B1 |  |  |  |  | no binding | no binding | no binding | no binding
6 | B2 |  |  |  |  | no binding | no binding | no binding | no binding
7 | B3 |  |  |  |  | no binding | no binding | no binding | no binding

— article PMC12077520
